In article PMC5841360:
No constants are given. Whether binding was seen depends on the method and setting. In cells and extracts the contact can be indirect. Some results given as binding are weak or reduced against the parent protein; the word gives no strength.

Protein sequences, listed by entry. Tags and fused reporters are not part of them. Lines headed by an entry give the natural chain unless they say otherwise; changes in a name come on top. Chains listed by the source or under a name are the forms on record and can include a tag or linker. Residues count along the entry.
UniProt P19490, residues 19-907: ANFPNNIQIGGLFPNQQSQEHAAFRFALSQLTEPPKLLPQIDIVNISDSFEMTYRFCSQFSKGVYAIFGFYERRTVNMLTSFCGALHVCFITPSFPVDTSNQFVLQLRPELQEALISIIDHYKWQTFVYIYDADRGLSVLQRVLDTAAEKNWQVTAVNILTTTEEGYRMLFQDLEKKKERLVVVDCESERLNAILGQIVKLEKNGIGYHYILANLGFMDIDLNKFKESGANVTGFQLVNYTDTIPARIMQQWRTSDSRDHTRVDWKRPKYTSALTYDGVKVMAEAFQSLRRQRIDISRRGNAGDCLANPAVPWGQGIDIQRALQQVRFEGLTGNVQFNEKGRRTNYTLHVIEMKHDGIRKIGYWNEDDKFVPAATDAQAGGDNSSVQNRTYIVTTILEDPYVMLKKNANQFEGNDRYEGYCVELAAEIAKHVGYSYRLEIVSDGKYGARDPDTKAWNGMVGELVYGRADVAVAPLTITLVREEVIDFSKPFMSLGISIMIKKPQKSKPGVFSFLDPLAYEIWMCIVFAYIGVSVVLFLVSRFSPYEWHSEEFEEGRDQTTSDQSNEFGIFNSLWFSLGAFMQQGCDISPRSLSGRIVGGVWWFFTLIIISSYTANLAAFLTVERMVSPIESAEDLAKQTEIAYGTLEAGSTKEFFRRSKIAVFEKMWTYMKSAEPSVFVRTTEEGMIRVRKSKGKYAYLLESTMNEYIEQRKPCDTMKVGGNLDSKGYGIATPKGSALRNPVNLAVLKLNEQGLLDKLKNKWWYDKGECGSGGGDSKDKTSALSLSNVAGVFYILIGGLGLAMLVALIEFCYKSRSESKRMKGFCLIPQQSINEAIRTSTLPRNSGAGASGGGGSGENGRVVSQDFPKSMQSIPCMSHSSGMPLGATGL
UniProt P19491, residues 22-883: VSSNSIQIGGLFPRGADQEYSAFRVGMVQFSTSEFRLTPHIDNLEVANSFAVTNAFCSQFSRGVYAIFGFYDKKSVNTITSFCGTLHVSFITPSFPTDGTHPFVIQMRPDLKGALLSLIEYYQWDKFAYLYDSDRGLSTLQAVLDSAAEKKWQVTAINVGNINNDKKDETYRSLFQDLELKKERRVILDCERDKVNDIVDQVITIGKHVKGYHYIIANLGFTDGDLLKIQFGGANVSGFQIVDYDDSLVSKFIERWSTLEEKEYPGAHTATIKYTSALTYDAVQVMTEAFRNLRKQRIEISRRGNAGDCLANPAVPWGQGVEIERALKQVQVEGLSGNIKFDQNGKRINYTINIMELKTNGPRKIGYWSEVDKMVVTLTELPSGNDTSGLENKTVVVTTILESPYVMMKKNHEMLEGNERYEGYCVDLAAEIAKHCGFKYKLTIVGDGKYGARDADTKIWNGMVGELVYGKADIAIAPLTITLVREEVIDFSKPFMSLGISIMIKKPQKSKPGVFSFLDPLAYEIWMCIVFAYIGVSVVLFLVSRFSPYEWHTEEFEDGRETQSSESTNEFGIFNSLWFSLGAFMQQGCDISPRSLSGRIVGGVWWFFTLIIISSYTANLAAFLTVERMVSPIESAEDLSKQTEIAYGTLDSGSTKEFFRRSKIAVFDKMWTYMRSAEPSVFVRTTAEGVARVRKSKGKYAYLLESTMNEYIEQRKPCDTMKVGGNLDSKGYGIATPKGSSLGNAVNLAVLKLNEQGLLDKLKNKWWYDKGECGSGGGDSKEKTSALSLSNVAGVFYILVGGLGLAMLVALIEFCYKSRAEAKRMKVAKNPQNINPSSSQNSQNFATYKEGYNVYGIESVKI
UniProt Q60598: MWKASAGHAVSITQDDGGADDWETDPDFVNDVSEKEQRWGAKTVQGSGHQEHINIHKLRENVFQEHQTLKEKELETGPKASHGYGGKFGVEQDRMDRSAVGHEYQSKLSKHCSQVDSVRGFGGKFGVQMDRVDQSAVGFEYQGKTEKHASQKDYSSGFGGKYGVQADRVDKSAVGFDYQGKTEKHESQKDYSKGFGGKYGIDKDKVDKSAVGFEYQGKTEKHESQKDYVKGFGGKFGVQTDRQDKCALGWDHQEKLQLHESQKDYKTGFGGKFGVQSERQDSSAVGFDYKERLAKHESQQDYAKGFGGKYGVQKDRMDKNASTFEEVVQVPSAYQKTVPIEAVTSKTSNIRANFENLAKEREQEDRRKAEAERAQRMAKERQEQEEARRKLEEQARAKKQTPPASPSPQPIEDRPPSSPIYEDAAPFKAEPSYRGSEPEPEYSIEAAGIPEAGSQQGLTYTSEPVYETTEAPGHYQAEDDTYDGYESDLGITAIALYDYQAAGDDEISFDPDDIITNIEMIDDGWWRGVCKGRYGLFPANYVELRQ
flag-tagged TyrM-cortactin (Y421, Y466 and Y482 mutated to phenylalanine) (Q60598, form named): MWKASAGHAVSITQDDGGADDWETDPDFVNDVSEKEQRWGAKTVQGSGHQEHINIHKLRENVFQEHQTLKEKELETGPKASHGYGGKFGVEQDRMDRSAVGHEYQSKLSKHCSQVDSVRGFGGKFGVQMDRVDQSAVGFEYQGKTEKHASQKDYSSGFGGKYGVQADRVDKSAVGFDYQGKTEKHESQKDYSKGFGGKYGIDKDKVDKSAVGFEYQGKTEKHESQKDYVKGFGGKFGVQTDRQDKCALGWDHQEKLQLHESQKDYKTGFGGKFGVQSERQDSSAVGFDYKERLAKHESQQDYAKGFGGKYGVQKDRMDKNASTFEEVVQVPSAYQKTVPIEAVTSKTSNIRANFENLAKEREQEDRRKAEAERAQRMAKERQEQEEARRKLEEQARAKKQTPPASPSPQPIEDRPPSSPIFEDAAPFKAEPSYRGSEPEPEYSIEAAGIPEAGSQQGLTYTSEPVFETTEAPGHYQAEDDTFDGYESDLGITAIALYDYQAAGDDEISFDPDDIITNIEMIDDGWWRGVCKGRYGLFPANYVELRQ

Legend:
[1] = target: Myc-tagged GluA1 (HEK293) (UniProt P19490); test: co-IP; lysates of transfected HEK293 cells immunoprecipitated with Myc tag antibody or control IgG; Western blotting
[2] = target: Myc-tagged GluA2, full-length subunit (HEK293) (UniProt P19491); test: as above
[3] = target: flag-tagged TyrM-cortactin (Y421, Y466 and Y482 mutated to phenylalanine) (UniProt Q60598); test: co-IP; lysates of transfected HEK293 cells immunoprecipitated with Flag tag antibody or control IgG; Western blotting; also after 10 µM PP2 or vehicle (DMSO) for 30 min before lysis
[4] = target: flag-tagged cortactin, wild type (HEK293) (UniProt Q60598); test: as above

| binding [1] | binding [2] | binding [3] | binding [4] | Substance |
| --- | --- | --- | --- | --- |
| no binding | binds | – | – | flag-tagged cortactin, wild type (HEK293) (from UniProt Q60598 1-546) |
| – | – | binds | binds | Myc-tagged GluA2, full-length subunit (HEK293) (from UniProt P19491 22-883) (receptor) |
